Here are results for 2 molecules from paper PMC7484783.

Assay [1] has as its target T1, Bak (mouse (endogenous in retina)) (UniProt O08734).
T1 sequence: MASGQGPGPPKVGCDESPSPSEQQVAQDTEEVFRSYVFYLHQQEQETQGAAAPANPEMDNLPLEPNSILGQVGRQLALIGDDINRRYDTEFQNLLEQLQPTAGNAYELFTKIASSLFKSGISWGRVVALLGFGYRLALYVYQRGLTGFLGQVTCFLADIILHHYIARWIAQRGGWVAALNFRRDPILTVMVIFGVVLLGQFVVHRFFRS
Nature of the assay: co-IP; Pierce co-IP kit; pre-cleared lysates of retinas of wt or Rac1 cKO mice; precipitated with Bcl-2 or Bak antibody (human IgG as negative control), detected by Beclin1 antibody on western blot.

Assay [2] concerns the target T2, Bcl-2 (mouse (endogenous in retina)), P10417.
T2 chain: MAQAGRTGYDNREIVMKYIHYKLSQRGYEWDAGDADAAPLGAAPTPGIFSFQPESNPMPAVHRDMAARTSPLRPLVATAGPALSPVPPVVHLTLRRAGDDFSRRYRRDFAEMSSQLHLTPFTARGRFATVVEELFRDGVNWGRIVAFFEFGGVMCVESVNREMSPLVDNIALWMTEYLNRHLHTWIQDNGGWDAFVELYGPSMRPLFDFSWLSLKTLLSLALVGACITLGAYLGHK
The assay is described as above. Particulars: remark: other sources report otherwise.

These are yes or no findings as the source states them, for the method shown. Binding seen in cells or lysates may run through a third protein. Some binding calls cover weakened binding; strength is not graded here.

In the case of Beclin1 (from UniProt O88597 1-448), the binding result in assay [1] was “binds”.

B1: Beclin1, O88597 1-448 (protein)
chain: MEGSKASSSTMQVSFVCQRCSQPLKLDTSFKILDRVTIQELTAPLLTTAQAKPGETQEEEANSGEEPFIETRQDGVSRRFIPPARMMSTESANSFTLIGEASDGGTMENLSRRLKVTGDLFDIMSGQTDVDHPLCEECTDTLLDQLDTQLNVTENECQNYKRCLEILEQMNEDDSEQLQRELKELALEEERLIQELEDVEKNRKVVAENLEKVQAEAERLDQEEAQYQREYSEFKRQQLELDDELKSVENQVRYAQIQLDKLKKTNVFNATFHIWHSGQFGTINNFRLGRLPSVPVEWNEINAAWGQTVLLLHALANKMGLKFQRYRLVPYGNHSYLESLTDKSKELPLYCSGGLRFFWDNKFDHAMVAFLDCVQQFKEEVEKGETRFCLPYRMDVEKGKIEDTGGSGGSYSIKTQFNSEEQWTKALKFMLTNLKWGLAWVSSQFYNK
As for B1, the binding entry in assay [2] is listed as “binds”.
